Results reported in article PMC12292949.

B1: TCOF1 (endogenous) (protein, UniProt Q13428 1-1488)
chain: MAEARKRRELLPLIYHHLLRAGYVRAAREVKEQSGQKCFLAQPVTLLDIYTHWQQTSELGRKRKAEEDAALQAKKTRVSDPISTSESSEEEEEAEAETAKATPRLASTNSSVLGADLPSSMKEKAKAETEKAGKTGNSMPHPATGKTVANLLSGKSPRKSAEPSANTTLVSETEEEGSVPAFGAAAKPGMVSAGQADSSSEDTSSSSDETDVEGKPSVKPAQVKASSVSTKESPARKAAPAPGKVGDVTPQVKGGALPPAKRAKKPEEESESSEEGSESEEEAPAGTRSQVKASEKILQVRAASAPAKGTPGKGATPAPPGKAGAVASQTKAGKPEEDSESSSEESSDSEEETPAAKALLQAKASGKTSQVGAASAPAKESPRKGAAPAPPGKTGPAVAKAQAGKREEDSQSSSEESDSEEEAPAQAKPSGKAPQVRAASAPAKESPRKGAAPAPPRKTGPAAAQVQVGKQEEDSRSSSEESDSDREALAAMNAAQVKPLGKSPQVKPASTMGMGPLGKGAGPVPPGKVGPATPSAQVGKWEEDSESSSEESSDSSDGEVPTAVAPAQEKSLGNILQAKPTSSPAKGPPQKAGPVAVQVKAEKPMDNSESSEESSDSADSEEAPAAMTAAQAKPALKIPQTKACPKKTNTTASAKVAPVRVGTQAPRKAGTATSPAGSSPAVAGGTQRPAEDSSSSEESDSEEEKTGLAVTVGQAKSVGKGLQVKAASVPVKGSLGQGTAPVLPGKTGPTVTQVKAEKQEDSESSEEESDSEEAAASPAQVKTSVKKTQAKANPAAARAPSAKGTISAPGKVVTAAAQAKQRSPSKVKPPVRNPQNSTVLARGPASVPSVGKAVATAAQAQTGPEEDSGSSEEESDSEEEAETLAQVKPSGKTHQIRAALAPAKESPRKGAAPTPPGKTGPSAAQAGKQDDSGSSSEESDSDGEAPAAVTSAQVIKPPLIFVDPNRSPAGPAATPAQAQAASTPRKARASESTARSSSSESEDEDVIPATQCLTPGIRTNVVTMPTAHPRIAPKASMAGASSSKESSRISDGKKQEGPATQVSKKNPASLPLTQAALKVLAQKASEAQPPVARTQPSSGVDSAVGTLPATSPQSTSVQAKGTNKLRKPKLPEVQQATKAPESSDDSEDSSDSSSGSEEDGEGPQGAKSAHTLGPTPSRTETLVEETAAESSEDDVVAPSQSLLSGYMTPGLTPANSQASKATPKLDSSPSVSSTLAAKDDPDGKQEAKPQQAAGMLSPKTGGKEAASGTTPQKSRKPKKGAGNPQASTLALQSNITQCLLGQPWPLNEAQVQASVVKVLTELLEQERKKVVDTTKESSRKGWESRKRKLSGDQPAARTPRSKKKKKLGAGEGGEASVSPEKTSTTSKGKAKRDKASGDVKEKKGKGSLGSQGAKDEPEEELQKGMGTVEGGDQSNPKSKKEKKKSDKRKKDKEKKEKKKKAKKASTKDSESPSQKKKKKKKKTAEQTV
B2: proline-rich protein 11 (PRR11) (endogenous) (protein, UniProt Q96HE9 1-360)
chain: MPKFKQRRRKLKAKAERLFKKKEASHFQSKLITPPPPPPSPERVGISSIDISQSRSWLTSSWNFNFPNIRDAIKLWTNRVWSIYSWCQNCITQSLEVLKDTIFPSRICHRELYSVKQQFCILESKLCKLQEALKTISESSSCPSCGQTCHMSGKLTNVPACVLITPGDSKAVLPPTLPQPASHFPPPPPPPPLPPPPPPLAPVLLRKPSLAKALQAGPLKKDGPMQITVKDLLTVKLKKTQSLDEKRKLIPSPKARNPLVTVSDLQHVTLKPNSKVLSTRVTNVLITPGKSQMDLRKLLRKVDVERSPGGTPLTNKENMETGTGLTPVMTQALRRKFQLAHPRSPTPTLPLSTSSFDEQN
B3: TAF1D (endogenous) (protein, UniProt Q9H5J8 1-278)
chain: MDKSGIDSLDHVTSDAVELANRSDNSSDSSLFKTQCIPYSPKGEKRNPIRKFVRTPESVHASDSSSDSSFEPIPLTIKAIFERFKNRKKRYKKKKKRRYQPTGRPRGRPEGRRNPIYSLIDKKKQFRSRGSGFPFLESENEKNAPWRKILTFEQAVARGFFNYIEKLKYEHHLKESLKQMNVGEDLENEDFDSRRYKFLDDDGSISPIEESTAEDEDATHLEDNECDIKLAGDSFIVSSEFPVRLSVYLEEEDITEEAALSKKRATKAKNTGQRGLKM
B4: TTF1 (endogenous) (protein, UniProt Q15361 1-905)
chain: MEGESSRFEIHTPVSDKKKKKCSIHKERPQKHSHEIFRDSSLVNEQSQITRRKKRKKDFQHLISSPLKKSRICDETANATSTLKKRKKRRYSALEVDEEAGVTVVLVDKENINNTPKHFRKDVDVVCVDMSIEQKLPRKPKTDKFQVLAKSHAHKSEALHSKVREKKNKKHQRKAASWESQRARDTLPQSESHQEESWLSVGPGGEITELPASAHKNKSKKKKKKSSNREYETLAMPEGSQAGREAGTDMQESQPTVGLDDETPQLLGPTHKKKSKKKKKKKSNHQEFEALAMPEGSQVGSEVGADMQESRPAVGLHGETAGIPAPAYKNKSKKKKKKSNHQEFEAVAMPESLESAYPEGSQVGSEVGTVEGSTALKGFKESNSTKKKSKKRKLTSVKRARVSGDDFSVPSKNSESTLFDSVEGDGAMMEEGVKSRPRQKKTQACLASKHVQEAPRLEPANEEHNVETAEDSEIRYLSADSGDADDSDADLGSAVKQLQEFIPNIKDRATSTIKRMYRDDLERFKEFKAQGVAIKFGKFSVKENKQLEKNVEDFLALTGIESADKLLYTDRYPEEKSVITNLKRRYSFRLHIGRNIARPWKLIYYRAKKMFDVNNYKGRYSEGDTEKLKMYHSLLGNDWKTIGEMVARSSLSVALKFSQISSQRNRGAWSKSETRKLIKAVEEVILKKMSPQELKEVDSKLQENPESCLSIVREKLYKGISWVEVEAKVQTRNWMQCKSKWTEILTKRMTNGRRIYYGMNALRAKVSLIERLYEINVEDTNEIDWEDLASAIGDVPPSYVQTKFSRLKAVYVPFWQKKTFPEIIDYLYETTLPLLKEKLEKMMEKKGTKIQTPAAPKQVFPFRDIFYYEDDSEGEDIEKESEGQAPCMAHACNSSTLGGQGRWII
B5: TAF1C (endogenous) (protein, UniProt Q15572 1-869)
chain: MDFPSSLRPALFLTGPLGLSDVPDLSFMCSWRDALTLPEAQPQNSENGALHVTKDLLWEPATPGPLPMLPPLIDPWDPGLTARDLLFRGGCRYRKRPRVVLDVTEQISRFLLDHGDVAFAPLGKLMLENFKLEGAGSRTKKKTVVSVKKLLQDLGGHQPWGCPWAYLSNRQRRFSILGGPILGTSVASHLAELLHEELVLRWEQLLLDEACTGGALAWVPGRTPQFGQLVYPAGGAQDRLHFQEVVLTPGDNPQFLGKPGRIQLQGPVRQVVTCTVQGESKALIYTFLPHWLTCYLTPGPFHPSSALLAVRSDYHCAVWKFGKQWQPTLLQAMQVEKGATGISLSPHLPGELAICSRSGAVCLWSPEDGLRQIYRDPETLVFRDSSSWRWADFTAHPRVLTVGDRTGVKMLDTQGPPGCGLLLFRLGAEASCQKGERVLLTQYLGHSSPKCLPPTLHLVCTQFSLYLVDERLPLVPMLKWNHGLPSPLLLARLLPPPRPSCVQPLLLGGQGGQLQLLHLAGEGASVPRLAGPPQSLPSRIDSLPAFPLLEPKIQWRLQERLKAPTIGLAAVVPPLPSAPTPGLVLFQLSAAGDVFYQQLRPQVDSSLRRDAGPPGDTQPDCHAPTASWTSQDTAGCSQWLKALLKVPLAPPVWTAPTFTHRQMLGSTELRREEEEGQRLGVLRKAMARGQLLLQRDLGSLPAAEPPPAPESGLEDKLSERLGEAWAGRGAAWWERQQGRTSEPGRQTRRPKRRTQLSSSFSLSGHVDPSEDTSSPHSPEWPPADALPLPPTTPPSQELTPDACAQGVPSEQRQMLRDYMAKLPPQRDTPGCATTPPHSQASSVRATRSQQHTPVLSSSQPLRKKPRMGF

Target: T1, H2A.B N-terminal peptide phosphorylated at S9 (human)
T1 sequence (peptide, phosphoserine at S9; C-terminally biotinylated): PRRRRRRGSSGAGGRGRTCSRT
Assay: affinity purification with mass spectrometry; SILAC: biotinylated unmodified or S9ph H2A.B N-terminal peptide on streptavidin beads, L428 nuclear extract, 2 h at 4 C, binding buffer with NP-40 reduced to 0.1%; washes with 350 mM NaCl; LC-MS/MS; only the target purified

binding, binds:
B1, B2, B3, B4, B5

No constants are given. Whether binding was seen depends on the method and setting. In cells and extracts the contact can be indirect. These calls come from enrichment with a bait or labelling near it, and not all partners need be listed.
